Test results reported in article doi:10.1101/2023.02.08.527677.
Results are given in words; binding and its absence hold for the method and conditions named. In cells and extracts the contact can be indirect. Some results given as binding are weak or reduced against the parent protein; the word gives no strength.

Amino acid sequences for entries named in this document (tags omitted). A change or cut given only in a name is not applied to a line headed by its entry.
UniProt O15260: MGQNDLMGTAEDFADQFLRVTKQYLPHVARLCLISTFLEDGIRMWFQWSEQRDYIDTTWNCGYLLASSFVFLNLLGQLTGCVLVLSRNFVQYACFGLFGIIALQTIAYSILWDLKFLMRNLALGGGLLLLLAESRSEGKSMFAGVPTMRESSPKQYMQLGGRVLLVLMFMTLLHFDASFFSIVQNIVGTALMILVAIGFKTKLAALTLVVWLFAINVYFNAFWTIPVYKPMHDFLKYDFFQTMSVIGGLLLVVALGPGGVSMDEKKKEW
UniProt P04114: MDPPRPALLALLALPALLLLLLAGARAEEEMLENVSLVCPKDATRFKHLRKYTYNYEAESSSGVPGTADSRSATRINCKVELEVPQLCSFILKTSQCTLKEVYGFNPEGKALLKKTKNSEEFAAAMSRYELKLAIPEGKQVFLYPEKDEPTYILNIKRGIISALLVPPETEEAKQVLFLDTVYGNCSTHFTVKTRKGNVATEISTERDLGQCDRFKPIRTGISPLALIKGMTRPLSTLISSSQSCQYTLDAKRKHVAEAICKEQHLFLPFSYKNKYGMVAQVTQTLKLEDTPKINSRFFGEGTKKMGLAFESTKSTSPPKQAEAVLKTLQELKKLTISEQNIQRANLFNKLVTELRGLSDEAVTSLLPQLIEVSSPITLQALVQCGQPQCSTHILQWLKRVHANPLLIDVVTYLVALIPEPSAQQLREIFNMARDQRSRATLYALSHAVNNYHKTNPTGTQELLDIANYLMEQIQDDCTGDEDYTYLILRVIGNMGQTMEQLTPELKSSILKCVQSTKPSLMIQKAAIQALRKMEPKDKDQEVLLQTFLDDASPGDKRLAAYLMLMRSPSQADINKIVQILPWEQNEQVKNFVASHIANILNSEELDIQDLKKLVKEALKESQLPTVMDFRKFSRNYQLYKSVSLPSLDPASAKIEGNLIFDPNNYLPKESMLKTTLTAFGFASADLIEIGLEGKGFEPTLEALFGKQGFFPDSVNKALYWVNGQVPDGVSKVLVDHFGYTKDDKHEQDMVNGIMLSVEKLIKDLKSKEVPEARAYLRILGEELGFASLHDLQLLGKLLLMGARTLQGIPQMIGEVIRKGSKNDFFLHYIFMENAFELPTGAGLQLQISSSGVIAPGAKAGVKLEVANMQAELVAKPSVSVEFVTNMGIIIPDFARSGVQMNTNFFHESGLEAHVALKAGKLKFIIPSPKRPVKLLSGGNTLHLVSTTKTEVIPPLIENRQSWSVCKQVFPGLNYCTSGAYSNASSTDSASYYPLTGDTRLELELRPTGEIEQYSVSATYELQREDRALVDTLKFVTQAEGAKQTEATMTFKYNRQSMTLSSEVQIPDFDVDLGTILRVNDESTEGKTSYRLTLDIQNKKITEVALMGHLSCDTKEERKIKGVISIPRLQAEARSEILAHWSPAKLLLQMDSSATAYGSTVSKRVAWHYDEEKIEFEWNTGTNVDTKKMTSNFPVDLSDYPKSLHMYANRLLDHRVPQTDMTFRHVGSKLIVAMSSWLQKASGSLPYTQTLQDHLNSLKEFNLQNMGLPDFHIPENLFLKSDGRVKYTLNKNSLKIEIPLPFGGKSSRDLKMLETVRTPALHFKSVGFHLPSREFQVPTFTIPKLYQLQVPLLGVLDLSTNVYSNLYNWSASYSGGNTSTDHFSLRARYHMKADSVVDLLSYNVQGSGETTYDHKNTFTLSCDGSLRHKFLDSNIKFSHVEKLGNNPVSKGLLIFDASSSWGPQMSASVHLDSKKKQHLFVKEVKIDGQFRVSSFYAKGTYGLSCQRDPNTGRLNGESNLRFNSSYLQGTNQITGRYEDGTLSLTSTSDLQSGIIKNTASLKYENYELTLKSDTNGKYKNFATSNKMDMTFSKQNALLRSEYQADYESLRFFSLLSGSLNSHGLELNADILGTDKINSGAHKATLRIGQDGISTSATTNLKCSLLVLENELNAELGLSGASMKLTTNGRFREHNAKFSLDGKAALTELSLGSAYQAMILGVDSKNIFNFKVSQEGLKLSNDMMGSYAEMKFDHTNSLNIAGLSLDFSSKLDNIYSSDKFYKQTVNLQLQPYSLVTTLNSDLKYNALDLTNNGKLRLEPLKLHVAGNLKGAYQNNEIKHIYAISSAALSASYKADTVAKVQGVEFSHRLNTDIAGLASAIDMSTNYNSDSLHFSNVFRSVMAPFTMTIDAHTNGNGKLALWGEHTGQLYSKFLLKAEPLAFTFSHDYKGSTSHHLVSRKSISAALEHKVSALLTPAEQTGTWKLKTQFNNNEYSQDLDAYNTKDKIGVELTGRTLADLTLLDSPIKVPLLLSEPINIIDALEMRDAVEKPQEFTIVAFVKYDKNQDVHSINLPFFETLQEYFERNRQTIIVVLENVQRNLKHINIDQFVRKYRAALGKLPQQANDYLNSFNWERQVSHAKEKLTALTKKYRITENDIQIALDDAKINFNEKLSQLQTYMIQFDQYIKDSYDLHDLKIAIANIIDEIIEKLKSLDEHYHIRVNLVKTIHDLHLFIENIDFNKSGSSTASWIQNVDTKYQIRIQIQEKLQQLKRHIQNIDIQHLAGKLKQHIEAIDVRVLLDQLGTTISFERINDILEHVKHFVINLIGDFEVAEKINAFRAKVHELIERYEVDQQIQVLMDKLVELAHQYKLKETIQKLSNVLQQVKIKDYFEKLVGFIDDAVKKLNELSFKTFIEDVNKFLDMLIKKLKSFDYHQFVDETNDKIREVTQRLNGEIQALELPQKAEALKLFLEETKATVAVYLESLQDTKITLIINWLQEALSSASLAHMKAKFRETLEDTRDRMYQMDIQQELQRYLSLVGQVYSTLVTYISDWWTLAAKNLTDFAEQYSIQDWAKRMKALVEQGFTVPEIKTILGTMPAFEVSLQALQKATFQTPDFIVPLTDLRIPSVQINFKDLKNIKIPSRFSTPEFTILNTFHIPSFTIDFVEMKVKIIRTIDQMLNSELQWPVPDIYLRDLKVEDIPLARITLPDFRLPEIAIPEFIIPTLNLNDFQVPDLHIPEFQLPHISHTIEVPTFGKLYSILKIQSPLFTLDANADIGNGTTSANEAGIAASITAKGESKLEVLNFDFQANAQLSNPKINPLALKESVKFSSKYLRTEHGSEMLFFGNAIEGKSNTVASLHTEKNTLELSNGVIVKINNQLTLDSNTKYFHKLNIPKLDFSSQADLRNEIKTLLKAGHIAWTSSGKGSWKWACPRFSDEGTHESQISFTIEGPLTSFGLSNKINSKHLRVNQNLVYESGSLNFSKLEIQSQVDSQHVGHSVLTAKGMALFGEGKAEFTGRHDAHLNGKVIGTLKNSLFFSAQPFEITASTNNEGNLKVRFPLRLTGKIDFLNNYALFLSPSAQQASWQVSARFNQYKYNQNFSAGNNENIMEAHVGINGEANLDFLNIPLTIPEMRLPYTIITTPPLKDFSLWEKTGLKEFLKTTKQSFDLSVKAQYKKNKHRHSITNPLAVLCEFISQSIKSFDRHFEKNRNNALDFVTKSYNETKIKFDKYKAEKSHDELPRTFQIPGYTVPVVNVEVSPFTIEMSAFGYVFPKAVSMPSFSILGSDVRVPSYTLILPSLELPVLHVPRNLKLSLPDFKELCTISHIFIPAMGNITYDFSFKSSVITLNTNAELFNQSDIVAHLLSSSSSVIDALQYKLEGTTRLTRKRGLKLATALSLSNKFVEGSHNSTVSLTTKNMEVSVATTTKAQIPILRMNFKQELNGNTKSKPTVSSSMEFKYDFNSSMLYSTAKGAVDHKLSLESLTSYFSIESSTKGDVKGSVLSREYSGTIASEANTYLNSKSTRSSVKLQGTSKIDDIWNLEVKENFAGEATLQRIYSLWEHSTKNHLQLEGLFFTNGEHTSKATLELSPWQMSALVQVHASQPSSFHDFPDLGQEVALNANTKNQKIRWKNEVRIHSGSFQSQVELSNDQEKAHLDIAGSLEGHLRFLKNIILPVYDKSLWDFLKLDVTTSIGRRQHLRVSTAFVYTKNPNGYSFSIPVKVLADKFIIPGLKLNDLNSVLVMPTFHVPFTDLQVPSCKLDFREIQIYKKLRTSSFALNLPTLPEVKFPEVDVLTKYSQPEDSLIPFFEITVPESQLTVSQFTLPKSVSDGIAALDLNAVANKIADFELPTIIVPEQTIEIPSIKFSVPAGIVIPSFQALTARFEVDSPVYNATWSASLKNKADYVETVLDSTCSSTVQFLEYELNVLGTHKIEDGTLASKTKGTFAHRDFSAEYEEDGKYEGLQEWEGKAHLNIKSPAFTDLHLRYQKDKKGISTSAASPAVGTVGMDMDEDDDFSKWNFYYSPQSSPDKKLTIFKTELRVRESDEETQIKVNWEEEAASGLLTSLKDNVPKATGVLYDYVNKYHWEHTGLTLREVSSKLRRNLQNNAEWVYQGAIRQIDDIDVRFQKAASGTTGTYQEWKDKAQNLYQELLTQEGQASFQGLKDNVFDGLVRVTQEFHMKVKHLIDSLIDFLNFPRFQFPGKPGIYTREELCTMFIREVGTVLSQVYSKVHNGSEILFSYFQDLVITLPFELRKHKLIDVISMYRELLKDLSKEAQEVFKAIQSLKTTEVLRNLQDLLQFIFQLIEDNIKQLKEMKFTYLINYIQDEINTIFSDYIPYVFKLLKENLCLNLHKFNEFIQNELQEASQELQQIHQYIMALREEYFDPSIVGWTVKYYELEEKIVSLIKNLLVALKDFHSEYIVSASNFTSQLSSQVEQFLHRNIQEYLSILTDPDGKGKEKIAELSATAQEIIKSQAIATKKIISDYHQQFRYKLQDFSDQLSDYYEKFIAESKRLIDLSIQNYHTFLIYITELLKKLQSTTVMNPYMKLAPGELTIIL

Molecular target: surfeit locus protein 4 (Surf4) (human (endogenous in Caco-2)) (UniProt O15260)
Experiment: co-IP

## apolipoprotein B-48 (apoB-48) (from UniProt P04114 28-2179)
  binding: binds

## apolipoprotein B-100 (apoB-100) (from UniProt P04114 28-4563)
  binding: binds
